## Cleaved PARP after 72 h of treatment

Data from the primary screen of doi:10.1371/journal.pone.0140310, rounded.

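The test systems are human melanoma cell lines, treated with a pair of drugs for 72 h and then stained and imaged. The read-out is the fraction of cleaved-PARP-positive nuclei, in % of that fraction in the DMSO control; 200 means twice the control level of this apoptosis marker. Concentrations were fixed for each drug; these are the higher of two levels. These are primary screening values without error estimates. The marker varies much from line to line, for technical or biological reasons.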 An unselected part of the screen is shown. A dash means that no value is listed here.

Compounds and concentrations:
etoposide: COc1cc([C@@H]2c3cc4c(cc3[C@@H](O[C@@H]3O[C@@H]5CO[C@@H](C)O[C@H]5[C@H](O)[C@H]3O)[C@H]3COC(=O)[C@H]23)OCO4)cc(OC)c1O at 0.1 µM
RKI-983: C[C@@H](N)c1ccc(C(=O)Nc2ccnc3[nH]ccc23)cc1 at 2 µM
lenalidomide: Nc1cccc2c1CN(C1CCC(=O)NC1=O)C2=O (configuration not stated) at 5 µM
FH535: Cc1cc([N+](=O)[O-])ccc1NS(=O)(=O)c1cc(Cl)ccc1Cl at 5 µM
stibogluconate: O=C(O)[C@@H]1[O][Sb](=[O])([O][Sb]2(=[O])[O][C@H]([C@H](O)CO)[C@H](O)[C@H](C(=O)O)[O]2)[O][C@H]([C@H](O)CO)[C@@H]1O (some centres not stated) at 10 µM
midostaurin: CO[C@@H]1[C@H](N(C)C(=O)c2ccccc2)C[C@H]2O[C@]1(C)n1c3ccccc3c3c4c(c5c6ccccc6n2c5c31)C(=O)NC4 at 0.4 µM
IMD-0354: O=C(Nc1cc(C(F)(F)F)cc(C(F)(F)F)c1)c1cc(Cl)ccc1O at 0.08 µM
CHIR-265: Cn1c(Nc2ccc(C(F)(F)F)cc2)nc2cc(Oc3ccnc(-c4ncc(C(F)(F)F)[nH]4)c3)ccc21 at 0.4 µM

Pair,A2058,WM3619,RVH-421,A375,COLO 792,WM115,UACC-62,A101D,WM1745,IPC-298,MZ2-MEL,LOX IMVI,COLO 800
lenalidomide + etoposide,189,167,65.0,55.9,155,215,208,169,109,43.1,61.2,235,70.4
IMD-0354 + lenalidomide,87.0,97.5,74.1,55.3,76.6,27.2,159,53.3,70.7,45.4,62.2,160,80.1
stibogluconate + FH535,74.2,113,123,442,19.8,85.1,157,247,-,199,60.1,90.8,193
CHIR-265 + IMD-0354,188,178,263,234,845,478,368,114,152,148,-,126,82.6
CHIR-265 + RKI-983,347,245,151,115,1090,642,47.6,122,453,93.9,1120,128,162
RKI-983 + FH535,173,194,149,236,110,65.7,142,68.5,-,104,256,79.6,124
stibogluconate + IMD-0354,164,109,47.7,47.0,124,80.9,100,34.1,106,177,22.3,79.6,112
midostaurin + stibogluconate,380,147,392,-,271,777,106,585,235,65.5,547,55.9,211
stibogluconate + RKI-983,160,96.8,139,92.0,157,211,101,89.4,163,80.3,253,100,70.6
midostaurin + CHIR-265,1080,123,142,-,2110,4300,198,254,232,145,539,219,333
midostaurin + IMD-0354,262,127,54.0,-,189,227,118,351,292,119,402,52.6,187
lenalidomide + midostaurin,125,140,95.6,-,218,148,229,42.5,426,106,206,75.8,293
CHIR-265 + etoposide,212,220,338,101,1010,1150,276,175,190,329,553,104,122
FH535 + etoposide,137,110,44.1,148,71.4,118,70.5,294,-,247,58.7,148,144
CHIR-265 + stibogluconate,131,200,205,122,696,1200,151,86.1,143,180,148,153,320
etoposide + RKI-983,512,130,101,124,252,93.2,311,147,231,152,735,102,142
lenalidomide + stibogluconate,115,128,54.6,191,95.4,339,150,147,119,101,107,104,105
etoposide + stibogluconate,138,130,54.4,85.7,72.1,162,142,155,105,101,61.1,154,196
RKI-983 + midostaurin,699,141,119,-,316,93.1,179,212,390,134,1690,361,155
etoposide + midostaurin,272,133,115,-,113,280,106,144,188,165,195,151,289
lenalidomide + RKI-983,120,125,95.7,112,329,186,226,108,165,44.1,444,139,70.3
CHIR-265 + lenalidomide,132,192,116,243,915,411,404,217,170,254,113,64.5,73.3
CHIR-265 + FH535,287,237,128,293,1470,1480,109,190,223,66.7,491,37.5,108
FH535 + lenalidomide,91.2,120,47.7,130,107,116,51.1,94.7,105,44.3,25.0,70.2,129
IMD-0354 + etoposide,171,90.9,120,194,67.5,379,148,43.0,89.3,93.9,58.1,48.7,56.6
midostaurin + FH535,694,205,173,334,115,1120,41.4,143,225,103,102,153,117
IMD-0354 + FH535,90.4,114,65.0,99.1,122,61.0,116,120,-,281,-,72.9,71.6
RKI-983 + IMD-0354,188,103,217,10.1,144,91.7,232,46.3,159,68.7,155,132,115

2 of the entries, repeated:

Pair,A2058,WM3619,RVH-421,A375,COLO 792,WM115,UACC-62,A101D,WM1745,IPC-298,MZ2-MEL,LOX IMVI,COLO 800
midostaurin + CHIR-265,1080,123,142,-,2110,4300,198,254,232,145,539,219,333
IMD-0354 + FH535,90.4,114,65.0,99.1,122,61.0,116,120,-,281,-,72.9,71.6